From patent US6525059B1, “Substituted pyrazoles as p38 kinase inhibitors” (G. D. Searle & Company, priority 1998, dated 2003)

Test system: TNF-α
Test: LPS stimulation of TNF production by U937 cells
Assay type: cell-based
Settings: read-out: U937 Cell IC50, LPS-stimulated human U937 cells

Question: How did the IC50 turn out when `CN(C)C(=O)NCc1[nH]nc(-c2ccc(F)cc2)c1-c1ccncc1` was run?
Answer: Its IC50 is greater than 1 µM.

The structures given here were assigned with low confidence; some may be wrong.
